Source: publication PMC3854790, “CRIS—A Novel cAMP-Binding Protein Controlling Spermiogenesis and the Development of Flagellar Bending” (PLoS Genetics, 2013)
No constants are given. Whether binding was seen depends on the method and setting. Binding seen in cells or lysates may run through a third protein. A yes stands for co-enrichment or nearness to the bait. Other partners may have been found.

Amino acid sequences for entries named in this document (tags omitted). A change or cut given only in a name is not applied to a line headed by its entry. Chains listed by the source or under a name are the forms on record and can include a tag or linker.
UniProt P08414: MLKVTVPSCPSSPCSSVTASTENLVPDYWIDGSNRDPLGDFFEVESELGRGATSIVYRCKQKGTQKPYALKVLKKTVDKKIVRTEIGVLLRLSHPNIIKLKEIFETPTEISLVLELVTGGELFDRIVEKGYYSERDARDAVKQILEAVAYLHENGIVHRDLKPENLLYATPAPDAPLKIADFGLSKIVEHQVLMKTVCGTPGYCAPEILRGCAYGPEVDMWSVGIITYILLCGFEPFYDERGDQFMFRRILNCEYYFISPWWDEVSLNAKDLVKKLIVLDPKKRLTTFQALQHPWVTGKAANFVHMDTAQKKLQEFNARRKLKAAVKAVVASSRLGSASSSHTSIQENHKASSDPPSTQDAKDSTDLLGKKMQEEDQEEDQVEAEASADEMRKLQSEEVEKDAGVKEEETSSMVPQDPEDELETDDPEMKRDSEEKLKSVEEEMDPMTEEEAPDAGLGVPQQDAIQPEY
Dynactin subunit 4 (Q8CBY8-2, form named): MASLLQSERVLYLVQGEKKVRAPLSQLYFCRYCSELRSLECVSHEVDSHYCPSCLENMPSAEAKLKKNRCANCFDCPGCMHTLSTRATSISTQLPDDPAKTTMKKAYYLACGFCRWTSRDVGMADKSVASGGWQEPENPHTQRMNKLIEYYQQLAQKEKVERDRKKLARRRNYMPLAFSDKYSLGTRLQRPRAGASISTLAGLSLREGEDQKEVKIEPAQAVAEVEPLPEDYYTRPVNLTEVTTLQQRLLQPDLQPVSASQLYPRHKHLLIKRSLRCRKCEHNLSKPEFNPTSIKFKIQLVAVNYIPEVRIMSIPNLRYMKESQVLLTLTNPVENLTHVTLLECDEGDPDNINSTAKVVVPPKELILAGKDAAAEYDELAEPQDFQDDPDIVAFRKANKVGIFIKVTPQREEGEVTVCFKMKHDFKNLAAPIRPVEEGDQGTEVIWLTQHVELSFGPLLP
Kinesin-like protein KIF2A (P28740-1, form named): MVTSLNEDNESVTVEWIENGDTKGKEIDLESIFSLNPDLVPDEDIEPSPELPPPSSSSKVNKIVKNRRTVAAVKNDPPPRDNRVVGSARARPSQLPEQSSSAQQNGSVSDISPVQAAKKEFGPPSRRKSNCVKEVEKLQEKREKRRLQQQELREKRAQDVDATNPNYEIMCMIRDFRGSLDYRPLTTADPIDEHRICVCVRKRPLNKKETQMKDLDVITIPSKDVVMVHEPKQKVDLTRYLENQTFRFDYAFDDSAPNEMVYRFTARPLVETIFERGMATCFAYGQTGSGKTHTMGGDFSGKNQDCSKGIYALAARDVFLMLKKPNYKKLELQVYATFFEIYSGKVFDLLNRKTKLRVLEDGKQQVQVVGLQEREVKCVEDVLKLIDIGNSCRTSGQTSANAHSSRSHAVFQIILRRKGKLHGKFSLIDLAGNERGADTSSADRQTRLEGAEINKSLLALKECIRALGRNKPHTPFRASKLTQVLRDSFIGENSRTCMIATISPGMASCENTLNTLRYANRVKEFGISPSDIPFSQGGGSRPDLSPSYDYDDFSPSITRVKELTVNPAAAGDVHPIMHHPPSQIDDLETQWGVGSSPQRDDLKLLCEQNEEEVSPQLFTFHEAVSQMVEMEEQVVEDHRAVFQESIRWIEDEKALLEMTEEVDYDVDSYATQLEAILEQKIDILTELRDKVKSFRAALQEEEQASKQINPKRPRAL
UniProt Q91Y86: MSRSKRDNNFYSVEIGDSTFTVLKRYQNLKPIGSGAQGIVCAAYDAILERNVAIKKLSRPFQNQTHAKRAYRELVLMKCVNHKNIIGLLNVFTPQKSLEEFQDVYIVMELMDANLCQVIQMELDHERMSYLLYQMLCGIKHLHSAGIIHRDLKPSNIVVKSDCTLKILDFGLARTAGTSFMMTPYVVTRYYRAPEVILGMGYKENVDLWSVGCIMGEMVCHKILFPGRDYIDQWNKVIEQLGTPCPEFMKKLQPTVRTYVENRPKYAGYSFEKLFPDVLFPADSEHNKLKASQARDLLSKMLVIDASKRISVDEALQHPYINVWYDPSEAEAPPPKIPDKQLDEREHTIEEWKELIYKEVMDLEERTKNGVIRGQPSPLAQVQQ
UniProt Q9CQJ2: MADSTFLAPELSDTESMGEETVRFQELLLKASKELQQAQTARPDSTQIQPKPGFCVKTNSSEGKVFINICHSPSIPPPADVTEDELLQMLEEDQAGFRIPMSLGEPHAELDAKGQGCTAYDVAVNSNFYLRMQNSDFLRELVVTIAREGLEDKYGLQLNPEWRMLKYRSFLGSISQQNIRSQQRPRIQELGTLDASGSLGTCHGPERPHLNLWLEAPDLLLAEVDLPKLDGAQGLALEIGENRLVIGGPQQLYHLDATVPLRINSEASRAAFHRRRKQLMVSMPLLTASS
UniProt Q99J62: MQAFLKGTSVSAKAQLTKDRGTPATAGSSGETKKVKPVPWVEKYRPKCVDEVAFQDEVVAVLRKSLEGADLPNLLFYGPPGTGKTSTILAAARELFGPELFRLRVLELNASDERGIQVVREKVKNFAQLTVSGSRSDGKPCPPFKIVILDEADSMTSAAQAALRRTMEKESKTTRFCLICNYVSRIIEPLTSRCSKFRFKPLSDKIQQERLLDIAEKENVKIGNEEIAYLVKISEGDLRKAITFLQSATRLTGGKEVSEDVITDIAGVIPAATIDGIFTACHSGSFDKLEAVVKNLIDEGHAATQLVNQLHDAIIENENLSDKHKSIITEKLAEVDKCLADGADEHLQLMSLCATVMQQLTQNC
UniProt Q99PL5: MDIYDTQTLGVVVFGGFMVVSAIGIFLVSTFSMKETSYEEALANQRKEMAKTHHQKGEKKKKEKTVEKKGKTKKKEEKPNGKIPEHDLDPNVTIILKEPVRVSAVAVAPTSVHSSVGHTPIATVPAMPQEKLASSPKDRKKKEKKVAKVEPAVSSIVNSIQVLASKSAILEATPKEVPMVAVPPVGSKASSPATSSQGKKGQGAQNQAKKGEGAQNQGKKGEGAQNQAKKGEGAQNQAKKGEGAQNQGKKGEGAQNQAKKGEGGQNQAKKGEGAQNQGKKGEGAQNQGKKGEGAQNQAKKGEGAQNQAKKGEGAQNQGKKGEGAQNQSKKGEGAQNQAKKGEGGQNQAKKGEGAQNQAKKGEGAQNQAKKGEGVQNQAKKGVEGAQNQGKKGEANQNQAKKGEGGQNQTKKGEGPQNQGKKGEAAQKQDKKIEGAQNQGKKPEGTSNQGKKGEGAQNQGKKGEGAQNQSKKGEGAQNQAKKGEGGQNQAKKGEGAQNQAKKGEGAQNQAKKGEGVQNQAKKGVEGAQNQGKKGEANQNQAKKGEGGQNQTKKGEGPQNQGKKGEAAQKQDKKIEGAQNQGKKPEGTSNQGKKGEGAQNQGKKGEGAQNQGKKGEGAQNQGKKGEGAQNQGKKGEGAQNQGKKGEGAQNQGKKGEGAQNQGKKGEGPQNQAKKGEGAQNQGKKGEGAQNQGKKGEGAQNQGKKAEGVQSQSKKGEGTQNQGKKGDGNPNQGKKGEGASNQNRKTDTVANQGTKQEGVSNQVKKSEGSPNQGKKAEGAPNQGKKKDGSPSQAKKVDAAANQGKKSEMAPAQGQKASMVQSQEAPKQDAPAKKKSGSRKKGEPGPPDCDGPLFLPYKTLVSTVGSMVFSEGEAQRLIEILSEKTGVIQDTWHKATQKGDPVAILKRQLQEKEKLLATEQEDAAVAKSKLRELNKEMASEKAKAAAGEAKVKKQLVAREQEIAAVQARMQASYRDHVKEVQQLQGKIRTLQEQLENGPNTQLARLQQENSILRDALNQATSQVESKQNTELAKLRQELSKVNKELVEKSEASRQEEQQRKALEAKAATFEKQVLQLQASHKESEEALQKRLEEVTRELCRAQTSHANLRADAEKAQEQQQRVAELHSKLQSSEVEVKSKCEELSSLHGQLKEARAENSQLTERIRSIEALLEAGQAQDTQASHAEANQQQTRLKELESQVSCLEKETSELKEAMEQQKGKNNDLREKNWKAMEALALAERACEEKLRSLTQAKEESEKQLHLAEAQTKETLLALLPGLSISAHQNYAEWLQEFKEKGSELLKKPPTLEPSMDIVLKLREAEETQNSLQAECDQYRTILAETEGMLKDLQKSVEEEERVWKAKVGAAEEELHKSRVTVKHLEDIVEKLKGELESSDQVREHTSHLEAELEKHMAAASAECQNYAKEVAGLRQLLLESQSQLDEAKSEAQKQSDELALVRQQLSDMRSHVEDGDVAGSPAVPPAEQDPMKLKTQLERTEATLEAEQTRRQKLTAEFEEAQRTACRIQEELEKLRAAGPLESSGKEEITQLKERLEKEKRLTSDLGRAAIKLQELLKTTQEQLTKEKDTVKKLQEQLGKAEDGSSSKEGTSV

T1: CRIS (cyclic nucleotide receptor involved in sperm function) (mouse (endogenous in sperm precursor cells)) (UniProt Q9D5U8)
T1 sequence: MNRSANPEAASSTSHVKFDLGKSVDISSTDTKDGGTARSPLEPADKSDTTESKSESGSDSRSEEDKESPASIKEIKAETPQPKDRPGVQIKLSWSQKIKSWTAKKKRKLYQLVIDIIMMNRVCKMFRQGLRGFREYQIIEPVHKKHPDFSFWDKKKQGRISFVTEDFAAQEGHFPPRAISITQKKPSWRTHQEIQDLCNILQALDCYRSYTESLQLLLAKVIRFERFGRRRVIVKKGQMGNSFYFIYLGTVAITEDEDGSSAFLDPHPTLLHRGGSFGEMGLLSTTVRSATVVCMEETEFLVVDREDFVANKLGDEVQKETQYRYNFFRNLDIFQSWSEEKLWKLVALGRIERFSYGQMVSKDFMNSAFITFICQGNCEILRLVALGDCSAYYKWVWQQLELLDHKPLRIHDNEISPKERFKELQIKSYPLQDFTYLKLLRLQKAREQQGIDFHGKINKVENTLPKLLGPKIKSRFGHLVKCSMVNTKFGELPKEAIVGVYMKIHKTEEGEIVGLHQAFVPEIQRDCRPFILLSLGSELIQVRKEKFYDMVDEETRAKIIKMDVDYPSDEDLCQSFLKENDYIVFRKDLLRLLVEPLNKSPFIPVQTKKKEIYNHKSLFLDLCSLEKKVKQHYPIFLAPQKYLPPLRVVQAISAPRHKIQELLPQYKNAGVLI


Biological target: T1, CRIS (cyclic nucleotide receptor involved in sperm function) (mouse (endogenous in sperm precursor cells))
Experiment: affinity purification with mass spectrometry; co-immunoprecipitation of endogenous CRIS from sperm precursor cells of wild-type mice; 500 µg total lysate on a column of monoclonal antibody 4B2 or 4E4 covalently coupled to Protein G, overnight at 4°C, washed four times with lysis buffer (10 mM Tris/HCl pH 7.6, 140 mM NaCl, 1 mM EDTA, 1% Triton-X 100), eluted in SDS sample buffer, SDS-PAGE, LC-MS/MS; cells of Cris-deficient mice as negative control

Molecule	binding
CCR4-NOT transcription complex subunit 10 (from UniProt Q8BH15-1 1-744)	binds
Calcium/calmodulin-dependent protein kinase type IV (from UniProt P08414)	binds
Cytoplasmic FMR1-interacting protein 1 (from UniProt Q7TMB8-1 1-1253)	binds
Dynactin subunit 4 (from UniProt Q8CBY8-2 1-460)	binds
Intraflagellar transport protein 172 homolog (from UniProt Q6VH22-1 1-1749)	binds
Kinesin-like protein KIF2A (from UniProt P28740-1 1-716)	binds
Mitogen-activated protein kinase 8 (from UniProt Q91Y86 1-384)	binds
Oxysterol-binding protein 1	binds
PIH1 domain-containing protein 1 (from UniProt Q9CQJ2 1-290)	binds
Replication factor C subunit 4 (from UniProt Q99J62 1-364)	binds
Ribosome-binding protein 1 (from UniProt Q99PL5 1-1605)	binds
Serine/threonine-protein kinase N1 (from UniProt P70268-1 1-946)	binds
Serine/threonine-protein phosphatase 2B catalytic subunit alpha isoform (from UniProt P63328-1 1-521)	binds
Ras-related protein Rab-5C (protein, UniProt P35278 1-216) MAGRGGAARPNGPAAGNKICQFKLVLLGESAVGKSSLVLRFVKGQFHEYQESTIGAAFLTQTVCLDDTTVKFEIWDTAGQERYHSLAPMYYRGAQAAIVVYDITNTDTFARAKNWVKELQRQASPNIVIALAGNKADLASKRAVEFQEAQAYADDNSLLFMETSAKTAMNVNEIFMAIAKKLPKNEPQNAAGAPGRTRGVDLQESNPASRSQCCSN	binds
E3 ubiquitin-protein ligase RNF123 (protein, UniProt Q5XPI3-1 1-1314) MASKGTGMSFSRKSYRLTSDAEKSRVTGIVQEKLLSDYLYRIFSPPDRGPAAATSRKPLNFHNLPEHVDQLLQVDSEDNESQGQVEGRLGPSTVVLDHTGGFEGLLLVDDDLLGVIGHSNFGTIRSTTCVYKGKWVYEVLISSQGLMQIGWCTINCRFNQEEGVGDTHNSYAYDGNRVRKWNVTTTNYGKAWAAGDIVSCLIDLDDGTLSFCLNGVSLGTAFENLSRGLGMAYFPAISLSFKESVAFNFGSRPLRYPVAGFRPLQDPPFADLVRAQRLLGCFQAVLSVELDPVEGRLVETESSEWQLQGQPTVLLTLAHIFHHFAPLLRKVYLVEAVLMSFLLGVVEKGTPEQAQSVVHQILDLLWLFMEDYEVQDCLKQLMMSLLRLYRFSPIVPDLGLQIHYLRLTMSILRHEKSRKFLLSNVLFDMLRSVVFFYIKSPLRVEEAGLKELIPTTWWPHRSSRESRDGKEAREETTEERQRRRAYERGCQRLKKRIEVVEELQVQILKLLLDNKDDNGGEASRYIFLTKFRKFLQENASGRGNTPVLCPPEYMVCFLHRLVSALRFYWDEYKASNPRASFSEEAYIPPQIFYNGKVDYFDLQRLGGLLSHLRKTLKDDLASKANIVIDPLELQAATMDDLDEDEEPAPSAAQRPMQALAIGGALPLPRPGWLSSPTLGRANRFLSTAAVSLMTPRRLLSTMEKVKVRSLNVEQRTREDIEGSHWNEGLLLGRPPEEPEQPLTENSLLEVLDGTVMMYNLSVHQQLGKMVGVSDDVNEYAMALRDTEDKLRRCPKRRKDILAELTKSQKVFSEKLDHLSRRLAWVHATVYSQEKMLDIYWLLRVCLRTIEHGDRTGSLFAFMPEFYLSVAINSYSALKNYFGPVHSMEELPGYEETLTRLAAILAKHFADPRIVGTDIRDSLMQALASYVCYPHSLRAVERIPEEQRIAMVRNLLAPYEQRPWAQTNWILVRLWRGCGFGYRYTRLPHLLKTKPEDANLPSLQKPCPSTLLQQHMADLLRQGSDVAPSFLNSVLNQLNWAFSEFIGMIQEIQQAAERLERNFVDSRQLKVCATCFDLSVSLLRVLEMTITLVPEIFLDWSRPTSEMLLRRLAQLLNQVLNRVTAERNLFDRVVTLRLPGLESVDHYPILVAVTGILVRLLVHGPTSETEQATSVLLADPCFQLRSICYLLGQPEPLAPGTTLPAPDRKRFSLQSYTDYISAEELAQVEQMLAHLTAASAQAAAASLPTNEEDLCPICYAHPISAVFQPCGHKSCKACINQHLMNNKDCFFCKATIVSVEDWDKAANTSAMSSAA	binds
Retinal dehydrogenase 2 (protein, UniProt Q62148 1-518) MTSSEIAMPGEVKADPAALMASLQLLPSPTPNLEIKYTKIFINNEWQNSESGRVFPVCNPATGEQVCEVQEADKVDIDKAVQAARLAFSLGSVWRRMDASERGRLLDKLADLVERDRATLATMESLNGGKPFLQAFYIDLQGVIKTLRYYAGWADKIHGMTIPVDGDYFTFTRHEPIGVCGQIIPWNFPLLMFTWKIAPALCCGNTVVIKPAEQTPLSALYMGALIKEAGFPPGVVNILPGYGPTAGAAIASHIGIDKIAFTGSTEVGKLIQEAAGRSNLKRVTLELGGKSPNIIFADADLDYAVEQAHQGVFFNQGQCCTAGSRIFVEESIYEEFVKRSVERAKRRIVGSPFDPTTEQGPQIDKKQYNKVLELIQSGVAEGAKLECGGKGLGRKGFFIEPTVFSNVTDDMRIAKEEIFGPVQEILRFKTMDEVIERANNSDFGLVAAVFTNDINKALMVSSAMQAGTVWINCYNALNAQSPFGGFKMSGNGREMGEFGLREYSEVKTVTVKIPQKNS	binds
Oxysterol-binding protein-related protein 11 (protein, UniProt Q8CI95 1-751) MQGGEPASVMKVSESEGKLEGLATAVTPNKNSGNSSCGGAISSSSSNSSRGGSAKGWQYSDHMESVNGYLMKYTNLVTGWQYRFFVLNNEAGLLEYFVNEQSRNQKPRGTLQLAGAVISPSDEDSHTFTVNAASGEQYKLRATDAKERQHWVSRLQICTQHHTEAIGKNNPPLKSRSFSLASSGNSPISQRRPSQNAMSFFNVGHSKLQSVNKRAHLHPDHLVEVREMMSHAEGQQRDLIRRIECLPASGLLSSLDQDLLMLKATSMATMNCLNDCFHILQLQHASHQKGALPSGTTIEWLEPKIPLSNHYKNGAEQPFATEPNKPMGAPEAQCVAESGVLAREPEDISADDEVEDTCDNKEDDLGAVEEQRSVILHLLSQLKLGMDLTRVVLPTFILEKRSLLEMYADFMSHPDLFIGITNGATPEDRMIRFVEYYLTSFHEGRKGAIAKKPYNPIIGETFHCSWRMPKSEVASGVSSSSSTPAITDHAPLPEEAPTQSVSDCYTVRFVAEQVSHHPPVSGFYAECAERKMCVNAHVWTKSKFLGMSIGVTMVGEGVLCLLEHGEEYTFSLPCAYARSILTVPWVELGGKVSVNCAKTGYSASITFHTKPFYGGKLHRVTAEVKYNLTNTVVCRVQGEWNSVLEFTYSNGETKFVDLAKLAVTKKRVRPLEKQDPFESRRLWKNVTDSLRESEIDKATEHKRSLEERQRTEERLRTETGTPWKTKYFIKEGDGWVYHKPLWKGIPSQPAE	binds
Selenoprotein W (protein, UniProt P63300 1-88) MALAVRVVYCGAUGYKPKYLQLKEKLEHEFPGCLDICGEGTPQVTGFFEVTVAGKLVHSKKRGDGYVDTESKFRKLVTAIKAALAQCQ	binds
Sister chromatid cohesion protein PDS5 homolog B (protein, UniProt Q4VA53-1 1-1446) MAHSKTRTNDGKITYPPGVKEISDKISKEEMVRRLKMVVKTFMDMDQDSEEEKELYLNLALHLASDFFLKHPDKDVRLLVACCLADIFRIYAPEAPYTSPDKLKDIFMFITRQLKGLEDTKSPQFNRYFYLLENIAWVKSYNICFELEDSNEIFTQLYRTLFSVINNGHNQKVHMHMVDLMSSIICEGDTVSQELLDTVLVNLVPAHKNLNKQAYDLAKALLKRTAQAIEPYITNFFNQVLMLGKTSISDLSEHVFDLILELYNIDSHLLLSVLPQLEFKLKSNDNEERLQVVKLLAKMFGAKDSELASQNKPLWQCYLGRFNDIHVPIRLECVKFASHCLMNHPDLAKDLTEYLKVRSHDPEEAIRHDVIVSIVTAAKKDILLVNDHLLNFVRERTLDKRWRVRKEAMMGLAQIYKKYSLQSAAGKDAAKQISWVKDKLLHIYYQNSIDDRLLVERIFAQYMVPHNLETTERMKCLYYLYATLDLNAVKALNEMWKCQNLLRHQVKDLLDLIKQPKTDASVKAIFSKVMVITRNLPDPGKAQDFMKKFTQVLEDDEKIRKQLEALVSPTCSCKQAEGCVREITKKLGNPKQPTNPFLEMIKFLLERIAPVHIDTESISALIKQVNKSIDGTADDEDEGVPTDQAIRAGLELLKVLSFTHPISFHSAETFESLLACLKMDDEKVAEAALQIFKNTGSKIEEDFPHIRSALLPVLHHKSKKGPPRQAKYAIHCIHAIFSSKETQFAQIFEPLHKSLDPSNLEHLITPLVTIGHIALLAPDQFAAPLKSLVATFIVKDLLMNDRLPGKKTTKLWVPDEEVSPETMVKIQAIKMMVRWLLGMKNNHSKSGTSTLRLLTTILHSDGDLTEQGKISKPDMSRLRLAAGSAIVKLAQEPCYHEIITLEQYQLCALAINDECYQVRQVFAQKLHKGLSRLRLPLEYMAICALCAKDPVKERRAHARQCLVKNITVRREYLKQHAAVSEKLLSLLPEYVVPYTIHLLAHDPDYVKVQDIEQLKDVKECLWFVLEILMAKNENNSHAFIRKMVENIKQTKDAQGPDDTKMNEKLYTVCDVAMNIIMSKSTTYSLESPKDPVLPARFFTQPDKNFSNTKNYLPPEMKSFFTPGKPKTANVLGAVNKPLSSAGKQSQTKSSRMETVSNASSSSNPSSPGRIKGRLDSSEMDHSENEDYTMSSPLPGKKSDKREDPDLSELEKPRSRKKAPVTDPEEKLGMDDLTKLVQEQKPKGSQRGRKRGRTASDSDEQQWPEEKRHKEELLENEDEQNSPPKKGKRGRPPKPLGGGTSKEEPTMKTSKKGNKKKLVPPVVDDDEEEERQIGNTEHKSKSKQHRTSKRAQQRAESPETSAVESTQSTPQKGRGRPSKAPSPSQPPKKIRVGRSKQVATKENDSSEEMDVLQASSPVSDDTTQEGAEEEDISVGNVRRRSSKRERR	binds
